Our source for the cell number change and AC50 values is PubChem BioAssay AID2685 (National Center for Advancing Translational Sciences (NCATS), 2010).

Broadly, the AC50 is the concentration at which the activity in the assay is half-maximal. Read a low AC50 as greater potency.

Molecules are shown by their SMILES. Some of the results follow. Shown are side measurements of this screen, not its main read-out; they come without a call. Compounds called inactive in the main read-out are mostly missing here. The note in brackets gives the kind of curve behind each potency; many fits are weak.

This test in a line: qHTS Assay for Lipid Storage Modulators in Drosophila S3 Cells.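 On cell number change: cells counted by Cell Tracker Red CMTPX staining in the red channel.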 As to conditions: BODIPY lipid droplet fluorescence, 18-24 h; for cell number change: measured here: cell count max response, cells fed with added oleic acid. Summed up: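 Drosophila S3 cells got compounds at several concentrations plus oleic acid (400 uM solution). Laser-scanning cytometry with 488 nm excitation read lipid droplets at 500-530 nm and cells at 575-640 nm. Percent activity was relative to 20 uM Triacsin C.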
Background: qHTS replaces the single test concentration by a dilution series.

[1] abbreviates: measured here: cell number channel AC50, cells fed with added oleic acid.
[2] abbreviates: measured here: lipid fluorescence (Fed channel) AC50, cells fed with added oleic acid.

In the case of `COc1ccc(C(=O)NNC(=O)CSc2nnc(COc3ccccc3)n2C)cc1`, the cell number change is -12.2%. The AC50 under setting [1] was 0.58 µM [falling, partial curve, poor fit]. As for `CCOC(=O)CSc1nnc(NC(=O)c2cccc(S(=O)(=O)N3CCCC3)c2)s1`, the cell number change was -184%. The AC50 under setting [1] was 23.1 µM [falling, partial curve]. In addition, the half-maximal activity concentration (AC50) under setting [2] was 6.51 µM [falling, single point]. Turning to `COC(=O)C1=C(C(=O)OC)SC2(S1)C(C(=O)OC)=C(C(=O)OC)SC1=C2c2cc(C)cc(C)c2NC1(C)C`, the cell number change is -10.4%. On to `c1ccc(-c2cc(-c3ccncc3)nc3ccc4ccccc4c23)cc1`, for which the cell number change is -11.6%. Further, under setting [1], the AC50 was 0.13 µM [falling, full curve, poor fit]. The half-maximal activity concentration (AC50) under setting [2] was 0.146 µM [falling, full curve].

As to `CCOC(=O)Cn1cc(Cl)cc(C(=O)Nc2ccccc2)c1=O`, the cell number change amounted to 20.7%. Also, the concentration at half-maximal activity (AC50) under setting [2] was 6.51 µM [rising, partial curve]. With `O=C(CSc1nncc(=O)[nH]1)NC1CCCCC1`, the cell number change was -7.83%. Further, under setting [2], the half-maximal activity concentration (AC50) was 6.51 µM [falling, single point].

As to `COc1ccc(CNc2ncnc3cc(Cl)ccc23)cc1`, the cell number change is -27.1%. Further, under setting [2], the half-maximal activity concentration (AC50) is 29.1 µM [falling, single point]. For the compound `CC(=O)Nc1ccc(NC(=O)CC23CC4CC(CC(C4)C2)C3)cc1`, the cell number change is 2.56%. As for `O=C(CN1C(=O)CSc2ncccc21)N1CCOCC1`, the cell number change is -36.5%. Under setting [1], the AC50 was 3.66 µM [falling, full curve]. Moreover, the AC50 under setting [2] is 3.66 µM [falling, full curve]. As for `CCOc1ccccc1CN1CCC(n2nccc2NC(=O)CCCc2ccccc2)CC1`, the cell number change is -7.65%. Also, under setting [1], the half-maximal activity concentration (AC50) is 0.103 µM [falling, full curve, poor fit]. In addition, the half-maximal activity concentration (AC50) under setting [2] was 29.1 µM [rising, single point]. Consider `CSCC[C@H](NC(=O)c1ccc(Cl)c([N+](=O)[O-])c1)c1nc2ccccc2[nH]1`, for which the cell number change was -4.35%. Also, under setting [2], the concentration at half-maximal activity (AC50) is 16.4 µM [falling, single point]. As to `COc1cc(C#N)ccc1OCC(=O)Nc1ccc(C)c(S(=O)(=O)N2CCOCC2)c1`, the cell number change was -10.8%. Besides, the AC50 under setting [1] is 0.116 µM [falling, full curve, poor fit]. Take `Cc1ccc2cccc(NS(=O)(=O)c3ccccc3)c2n1`: the cell number change is 6.49%.

Take `Cc1ccc2c(C)c(C(=O)N3CCN(C4CCS(=O)(=O)C4)CC3)oc2c1C` (stereo unspecified): the cell number change is -5.57%. In addition, the AC50 under setting [2] was 0.731 µM [falling, single point].

`CCN1/C(=C/C=C/c2sc3ccccc3[n+]2CC)Sc2ccccc21`: the cell number change was -94.3%. Further, under setting [1], the half-maximal activity concentration (AC50) is 5.17 µM [falling, full curve]. In addition, the AC50 under setting [2] is 0.82 µM [falling, full curve]. On to `Cc1ccc(C2=NNC(c3ccc(Cl)cc3)=Nc3ccccc32)o1`, for which the cell number change was determined as 12.3%. Also, the AC50 under setting [2] is 1.16 µM [falling, single point]. As to `Nc1cc2c(cc1[N+](=O)[O-])OCCO2`, the cell number change is -32%. Moreover, the concentration at half-maximal activity (AC50) under setting [1] is 13 µM [falling, single point]. Regarding `Cc1cccc(C2(c3cccc(C)c3)CC2C(=O)Nc2ccc([N+](=O)[O-])cc2O)c1` (stereo unspecified), the cell number change was -41.1%. Also, under setting [1], the concentration at half-maximal activity (AC50) was 20.6 µM [falling, single point]. Further, the concentration at half-maximal activity (AC50) under setting [2] was 18.4 µM [falling, single point].

In the case of `c1ccc2c3c(cc(N4CCOCC4)c2c1)OC1(N2CCOCC2)CCCCC1O3` (stereo unspecified), the cell number change was -2.7%. As for `Cc1ccccc1N(CC(=O)NCCc1ccccc1)C(=O)CCC(=O)Nc1ccccn1`, the cell number change is 8.56%. As to `O=C(COc1ccc(F)cc1)Nc1cc(Cl)ccc1-n1cncn1`, the cell number change was 75%. Further, the AC50 under setting [1] is 0.146 µM [rising, full curve]. For `O=C(COc1ccccc1)Nc1ccc2c(c1)C(=O)N(CC1CCCO1)C2=O` (stereo unspecified), the cell number change stood at 22.7%. Under setting [1], the half-maximal activity concentration (AC50) was 0.116 µM [rising, full curve, poor fit]. Also, the AC50 under setting [2] was 2.06 µM [rising, partial curve, poor fit]. Consider `COP(=O)(OC)c1nc(-c2cccc3ccccc23)oc1NCc1ccccc1`, for which the cell number change was -28.7%. Under setting [2], the concentration at half-maximal activity (AC50) was 14.6 µM [falling, single point]. Regarding `Cc1cccc(-n2c(O)c(C=NCCCN3CCOCC3)c3ccccc3c2=O)c1`, the concentration at half-maximal activity (AC50) under setting [1] is 0.58 µM [rising, single point].

Regarding `Cc1nc(N2CCN(c3ccccc3)CC2)c2c3c(sc2n1)CCC3`, the cell number change came to 86.4%. In addition, the AC50 under setting [1] is 2.91 µM [rising, full curve, poor fit]. Besides, the concentration at half-maximal activity (AC50) under setting [2] was 0.461 µM [rising, full curve]. As for `COC(=O)CCSCC(=O)Nc1nnc(C)s1`, the cell number change is -77.3%. The half-maximal activity concentration (AC50) under setting [1] is 13 µM [falling, partial curve, poor fit]. Further, the AC50 under setting [2] was 2.91 µM [falling, full curve]. For `N#CC1=C2Sc3ccccc3N2CCCC1=O`, the cell number change was -12.8%. Further, under setting [2], the half-maximal activity concentration (AC50) is 6.51 µM [rising, single point]. On to `COc1ccccc1NC(=O)c1sc2ncn(Cc3ccc(C)cc3)c(=O)c2c1C`, for which the AC50 under setting [2] was 0.731 µM [rising, single point]. `CCCC(=O)N(Cc1cc(=O)[nH]c2ccccc12)c1ccccc1OC`: the cell number change is -1.39%. Besides, the concentration at half-maximal activity (AC50) under setting [2] was 29.1 µM [rising, partial curve]. As for `Cc1nn2cc(-c3ccc(-c4ccccc4)cc3)nc2s1`, the cell number change is 6.82%. As to `CCC(=O)Nc1ccc(C(=O)NCc2ccccn2)cc1`, the cell number change is 45.9%.

Consider `COc1ccccc1-n1nnnc1SCC(=O)Nc1oc(C)c2c(C)n[nH]c(=O)c12`, for which the cell number change turned out to be 73.5%. In addition, under setting [1], the concentration at half-maximal activity (AC50) is 2.06 µM [rising, full curve]. In the case of `O=c1c2ccccc2nc2c3ccccc3c(NCc3ccccn3)nn12`, the cell number change was -38.3%. In addition, the concentration at half-maximal activity (AC50) under setting [1] was 29.1 µM [falling, single point]. Moreover, under setting [2], the AC50 is 29.1 µM [falling, single point]. As for `COc1ccccc1N1CCN(C(=O)CN2C(=O)c3cccc4cccc(c34)C2=O)CC1`, the cell number change amounted to 14.3%. Further, under setting [2], the concentration at half-maximal activity (AC50) was 0.00461 µM [falling, full curve, poor fit]. `CCN(CC(=O)Nc1ccc(NC(C)=O)cc1)C(=O)c1cn(-c2ccccc2)nc1-c1cccs1`: the cell number change came out at 95.2%. For the same compound, the AC50 under setting [1] was 23.1 µM [rising, partial curve, poor fit]. Consider `O=S1(=O)N=C2CCCCCN2C(c2ccncc2)N1` (stereo unspecified), for which the cell number change was 10.2%.

Turning to `CCn1c(SCc2ccccc2)nc2cc(OC)c(OC)cc2c1=O`, the cell number change was -2.03%. Besides, the concentration at half-maximal activity (AC50) under setting [2] is 6.51 µM [falling, single point]. Regarding `COc1ccc(NC(=O)c2sc(-c3ccccc3)nc2C)c(OC)c1`, the cell number change turned out to be 24.3%.

For the compound `O=C(COc1ccccc1)NCC(=O)N/N=C/c1ccccc1`, the cell number change is -66.7%. For the same compound, the AC50 under setting [1] is 29.1 µM [falling, partial curve, poor fit]. Moreover, the AC50 under setting [2] is 14.6 µM [rising, partial curve]. Consider `COc1ccccc1C(=O)Nc1c(C)n(C)n(-c2ccccc2)c1=O`, for which the cell number change was -3.29%. For the same compound, the AC50 under setting [2] is 0.146 µM [rising, full curve, poor fit]. In the case of `CC(C)C(NC(=O)c1ccc2c(c1)OCCO2)c1nc2ccccc2[nH]1` (stereo unspecified), the cell number change is 3.67%. For the same compound, the AC50 under setting [2] was 0.13 µM [falling, full curve, poor fit]. Regarding `CCCCn1c(SCC(=O)Nc2ccc(OC)cc2)nc2ccc(N3CCOCC3)cc2c1=O`, the cell number change was 116%. Besides, the half-maximal activity concentration (AC50) under setting [1] was 6.51 µM [rising, partial curve, poor fit]. Also, the AC50 under setting [2] was 0.461 µM [rising, full curve, poor fit]. In the case of `CC(=O)Nc1ccc(NC(=O)C(=O)NCC(c2ccco2)N2CCc3ccccc3C2)cc1` (stereo unspecified), the cell number change was -39.4%. For the same compound, the AC50 under setting [1] was 29.1 µM [falling, single point]. For the same compound, the AC50 under setting [2] was 3.26 µM [falling, partial curve, poor fit]. `CCOC(=O)Nc1sc(C(=O)N(CC)CC)c(C)c1C(=O)OCC`: the AC50 under setting [1] is 3.26 µM [rising, partial curve] and the concentration at half-maximal activity (AC50) under setting [2] is 0.206 µM [rising, full curve, poor fit]. `C/C(=N\Oc1cccc(F)n1)c1ccc(Cl)cc1Cl`: the cell number change came out at 27.9%. Moreover, the AC50 under setting [2] was 0.58 µM [falling, partial curve, poor fit]. In the case of `NS(=O)(=O)c1ccc(NC(=O)COC(=O)COc2ccc3ccccc3c2)cc1`, the cell number change was 12.5%. Under setting [2], the AC50 was 32.6 µM [falling, partial curve, poor fit].

Consider `CCOc1cccc(C(=O)Nc2nnc(-c3ccco3)s2)c1`, for which the cell number change is -80.4%. For the same compound, the half-maximal activity concentration (AC50) under setting [1] was 1.84 µM [falling, partial curve]. Also, the AC50 under setting [2] was 20.6 µM [falling, single point].

Consider `CCOC(=O)N1CCC(n2c(=S)[nH]c3cc(OC)c(OC)cc3c2=O)CC1`, for which the cell number change came to 9.23%. Still for that read-out and setting: next, `COc1ccc(NC(=O)c2ccc(Cl)c(S(=O)(=O)N3CCc4ccccc4C3)c2)cn1`: -72.2%. With `Cn1c(NC(=O)c2ccccc2NC(=O)C(C)(C)C)nc2ccccc21`, the AC50 under setting [1] was 2.06 µM [rising, partial curve] and the half-maximal activity concentration (AC50) under setting [2] is 0.82 µM [rising, full curve, poor fit].

As to `CC(=O)N1CCN(c2ccc(C(N)=O)cc2[N+](=O)[O-])CC1`, the cell number change was -14.9%.

On to `Cc1cc(C(=O)N2CCc3ccccc3C2)n[nH]1`, for which the cell number change is -12.6%. For the same compound, the concentration at half-maximal activity (AC50) under setting [2] was 32.6 µM [rising, partial curve, poor fit]. `CC[C@H]1c2[nH]c3ccccc3c2C[C@H]2C(=O)N(c3ccc(F)cc3)C(=O)N21`: the concentration at half-maximal activity (AC50) under setting [2] is 0.206 µM [rising, full curve, poor fit]. Consider `COc1cc(OC)c(OC)cc1CN1CCCC(C(=O)c2ccc3c(c2)OCO3)C1` (stereo unspecified), for which the cell number change is -6.06%. Moreover, under setting [2], the AC50 was 6.51 µM [falling, single point]. As to `Cc1cccnc1NC(=S)Nc1ccc(F)cc1F`, the cell number change is -7.97%. Further, the concentration at half-maximal activity (AC50) under setting [2] is 3.26 µM [falling, single point]. Take `O=C(c1cc(-c2ccc(O)cc2)on1)N1CCN(c2ccccc2)CC1`: the cell number change was 6.76%. The AC50 under setting [2] was 6.51 µM [rising, single point]. In the case of `Nc1ccc(S(=O)(=O)N2CCc3ccccc32)cc1`, the cell number change is -8.11%. In addition, the concentration at half-maximal activity (AC50) under setting [2] was 6.51 µM [rising, single point]. `O=C(CSc1ccc(Cl)cc1)N1CCOCC1`: the cell number change worked out at 10.2%. Besides, the AC50 under setting [2] is 16.4 µM [rising, single point]. Take `CCOC(=O)c1nc(N)c(C(=O)OCC)[nH]1`: the concentration at half-maximal activity (AC50) under setting [1] was 0.13 µM [rising, full curve, poor fit].
